Results on two molecules are retold here after publication PMC5960688.

For the test, the target named is MtCAS31-YFP^N (Medicago truncatula). The experiment in a line: split reporter; BiFC with YFP^N and YFP^C fusions under the CaMV35S promoter, co-transformed into Arabidopsis protoplasts; 16 h incubation; confocal microscopy, 488 nm excitation.

These are yes or no findings as the source states them, for the method shown. In cells and extracts the contact can be indirect. Sequences can lack the tags named with a protein.

B1: MtLb1-YFP^C (protein, UniProt P27992 1-147)
chain: MSFTDKQEALVNSSYEAFKQNLSGYSVFFYTVILEKAPAAKGLFSFLKDSAGVQDSPQLQAHAEKVFGLVRDSASQLRATGGVVLGDAALGAIHIQKGVVDPHFVVVKEALLKTIKEAAGDKWSEELSTAWEVAYDALATEIKKAMS
Take B1: the binding entry is “no binding”.

B2: MtLb2-YFP^C (protein, UniProt P27993 1-146)
chain: MGFTEKQEALVNSSWELFKQNPGNSVLFYTIILEKAPAAKGMFSFLKDTAGVQDSPKLQSHAEKVFGMVRDSAVQLRATGGVVLGDATLGAIHIQKGVVDPHFVVVKEALLKTIKEVSGDKWSEELSTAWEVAYDALAAAIKKAMG
In the case of B2, the binding result was “no binding”.
